What all share (assay): co-IP
The target of one experiment is T1, Flag-MCAF1 (UniProt Q6VMQ6).
T1 sequence: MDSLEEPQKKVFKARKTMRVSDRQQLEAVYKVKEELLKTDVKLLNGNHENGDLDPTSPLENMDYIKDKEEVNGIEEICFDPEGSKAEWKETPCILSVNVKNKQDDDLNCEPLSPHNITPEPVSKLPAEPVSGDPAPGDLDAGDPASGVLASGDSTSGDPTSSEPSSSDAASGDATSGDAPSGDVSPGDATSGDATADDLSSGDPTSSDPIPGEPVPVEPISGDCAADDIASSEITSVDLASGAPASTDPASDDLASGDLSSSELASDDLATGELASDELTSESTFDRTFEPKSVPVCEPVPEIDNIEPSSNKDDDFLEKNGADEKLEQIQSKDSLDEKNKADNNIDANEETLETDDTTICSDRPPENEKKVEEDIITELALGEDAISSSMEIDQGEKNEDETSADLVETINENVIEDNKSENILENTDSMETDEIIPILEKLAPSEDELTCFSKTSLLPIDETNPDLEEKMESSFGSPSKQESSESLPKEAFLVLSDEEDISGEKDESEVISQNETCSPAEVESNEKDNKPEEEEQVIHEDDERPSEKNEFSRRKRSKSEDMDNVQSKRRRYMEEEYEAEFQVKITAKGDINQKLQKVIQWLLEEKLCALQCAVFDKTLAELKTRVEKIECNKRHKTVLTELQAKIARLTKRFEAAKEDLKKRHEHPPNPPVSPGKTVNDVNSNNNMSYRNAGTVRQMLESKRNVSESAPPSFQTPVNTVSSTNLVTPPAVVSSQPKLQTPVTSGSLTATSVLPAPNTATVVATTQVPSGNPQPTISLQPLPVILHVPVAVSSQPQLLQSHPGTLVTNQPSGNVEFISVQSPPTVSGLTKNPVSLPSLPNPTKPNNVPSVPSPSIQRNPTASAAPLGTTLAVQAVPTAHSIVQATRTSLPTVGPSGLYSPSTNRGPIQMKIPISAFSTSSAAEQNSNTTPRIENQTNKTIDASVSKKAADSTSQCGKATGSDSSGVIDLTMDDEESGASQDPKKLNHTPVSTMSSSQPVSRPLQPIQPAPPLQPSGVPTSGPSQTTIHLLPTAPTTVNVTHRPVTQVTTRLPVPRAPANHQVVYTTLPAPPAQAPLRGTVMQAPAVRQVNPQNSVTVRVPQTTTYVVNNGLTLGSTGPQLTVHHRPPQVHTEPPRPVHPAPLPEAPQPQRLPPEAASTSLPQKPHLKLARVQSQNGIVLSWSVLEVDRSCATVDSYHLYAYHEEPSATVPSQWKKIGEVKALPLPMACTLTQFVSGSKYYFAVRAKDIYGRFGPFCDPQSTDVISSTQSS

For experiment [1], the target named is T2, ATF2 (human (endogenous in P3HR1 and 293T)) (UniProt P15336).
T2 sequence: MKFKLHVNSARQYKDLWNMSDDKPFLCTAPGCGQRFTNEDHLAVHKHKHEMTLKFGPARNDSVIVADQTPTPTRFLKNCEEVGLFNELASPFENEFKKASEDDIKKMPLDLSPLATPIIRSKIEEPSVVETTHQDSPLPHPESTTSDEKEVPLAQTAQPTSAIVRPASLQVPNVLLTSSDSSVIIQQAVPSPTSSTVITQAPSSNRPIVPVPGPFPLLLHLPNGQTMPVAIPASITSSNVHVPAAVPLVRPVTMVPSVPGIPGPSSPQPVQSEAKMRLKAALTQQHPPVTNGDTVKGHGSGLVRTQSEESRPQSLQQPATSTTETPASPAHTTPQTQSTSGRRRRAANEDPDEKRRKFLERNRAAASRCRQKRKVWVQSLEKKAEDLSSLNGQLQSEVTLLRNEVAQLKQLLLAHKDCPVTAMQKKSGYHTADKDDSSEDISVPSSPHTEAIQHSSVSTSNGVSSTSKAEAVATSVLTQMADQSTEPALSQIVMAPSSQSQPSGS

Experiment [2] concerns the target T3, MCAF1 (human (endogenous in P3HR1 and 293T)) (UniProt Q6VMQ6).
T3 sequence: T1 sequence

No constants are given. Whether binding was seen depends on the method and setting. Binding seen in cells or lysates may run through a third protein. Some binding calls cover weakened binding; strength is not graded here. For part of these data: Where a sequence is shown, tags or fusion partners need not be part of it.

B1: His-ATF2-N2 (domain or fragment, UniProt P15336 120-323)
chain: RSKIEEPSVVETTHQDSPLPHPESTTSDEKEVPLAQTAQPTSAIVRPASLQVPNVLLTSSDSSVIIQQAVPSPTSSTVITQAPSSNRPIVPVPGPFPLLLHLPNGQTMPVAIPASITSSNVHVPAAVPLVRPVTMVPSVPGIPGPSSPQPVQSEAKMRLKAALTQQHPPVTNGDTVKGHGSGLVRTQSEESRPQSLQQPATSTT
With B1, the binding result with Flag-MCAF1 is on record as “no binding”.

B2: His-ATF2-C (domain or fragment, UniProt P15336 324-505)
chain: ETPASPAHTTPQTQSTSGRRRRAANEDPDEKRRKFLERNRAAASRCRQKRKVWVQSLEKKAEDLSSLNGQLQSEVTLLRNEVAQLKQLLLAHKDCPVTAMQKKSGYHTADKDDSSEDISVPSSPHTEAIQHSSVSTSNGVSSTSKAEAVATSVLTQMADQSTEPALSQIVMAPSSQSQPSGS
As for B2, the binding result with Flag-MCAF1 was “binds”.

B3: MCAF1 (protein, UniProt Q6VMQ6 1-1270)
chain: T1 sequence
Regarding B3, the binding result in experiment [1] was “binds”.

B4: GFP-MCAF1-M (domain or fragment, UniProt Q6VMQ6 818-1153)
chain: SVQSPPTVSGLTKNPVSLPSLPNPTKPNNVPSVPSPSIQRNPTASAAPLGTTLAVQAVPTAHSIVQATRTSLPTVGPSGLYSPSTNRGPIQMKIPISAFSTSSAAEQNSNTTPRIENQTNKTIDASVSKKAADSTSQCGKATGSDSSGVIDLTMDDEESGASQDPKKLNHTPVSTMSSSQPVSRPLQPIQPAPPLQPSGVPTSGPSQTTIHLLPTAPTTVNVTHRPVTQVTTRLPVPRAPANHQVVYTTLPAPPAQAPLRGTVMQAPAVRQVNPQNSVTVRVPQTTTYVVNNGLTLGSTGPQLTVHHRPPQVHTEPPRPVHPAPLPEAPQPQRLPP
On to B4, for which the binding entry in experiment [1] was “no binding”.

B5: GFP-MCAF1-DM1 (domain or fragment, UniProt Q6VMQ6 562-817)
chain: MDNVQSKRRRYMEEEYEAEFQVKITAKGDINQKLQKVIQWLLEEKLCALQCAVFDKTLAELKTRVEKIECNKRHKTVLTELQAKIARLTKRFEAAKEDLKKRHEHPPNPPVSPGKTVNDVNSNNNMSYRNAGTVRQMLESKRNVSESAPPSFQTPVNTVSSTNLVTPPAVVSSQPKLQTPVTSGSLTATSVLPAPNTATVVATTQVPSGNPQPTISLQPLPVILHVPVAVSSQPQLLQSHPGTLVTNQPSGNVEFI
For the molecule B5, the binding entry in experiment [1] is listed as “binds”.

B6: His-ATF2-N1 (domain or fragment, UniProt P15336 1-119)
chain: MKFKLHVNSARQYKDLWNMSDDKPFLCTAPGCGQRFTNEDHLAVHKHKHEMTLKFGPARNDSVIVADQTPTPTRFLKNCEEVGLFNELASPFENEFKKASEDDIKKMPLDLSPLATPII
Regarding B6, in the experiment with Flag-MCAF1, the binding entry was “binds”.

B7: ATF2 (protein, UniProt P15336 1-505)
chain: T2 sequence
As to B7, the binding entry in experiment [2] is recorded as “binds”.

B8: His-ATF2 (protein, UniProt P15336 1-505)
chain: T2 sequence
Turning to B8, the binding entry in the experiment with Flag-MCAF1 is “binds”.

B9: GFP-MCAF1-DM2 (domain or fragment, UniProt Q6VMQ6 1154-1270)
chain: EAASTSLPQKPHLKLARVQSQNGIVLSWSVLEVDRSCATVDSYHLYAYHEEPSATVPSQWKKIGEVKALPLPMACTLTQFVSGSKYYFAVRAKDIYGRFGPFCDPQSTDVISSTQSS
For B9, the binding result in experiment [1] is listed as “binds”.

For the origin of these results see paper PMC3944714.
